These are yes or no findings as the source states them, for the method shown. Some binding calls cover weakened binding; strength is not graded here.

Protein sequences, listed by entry. Tags and fused reporters are not part of them. Residues count along the entry.
UniProt P61073: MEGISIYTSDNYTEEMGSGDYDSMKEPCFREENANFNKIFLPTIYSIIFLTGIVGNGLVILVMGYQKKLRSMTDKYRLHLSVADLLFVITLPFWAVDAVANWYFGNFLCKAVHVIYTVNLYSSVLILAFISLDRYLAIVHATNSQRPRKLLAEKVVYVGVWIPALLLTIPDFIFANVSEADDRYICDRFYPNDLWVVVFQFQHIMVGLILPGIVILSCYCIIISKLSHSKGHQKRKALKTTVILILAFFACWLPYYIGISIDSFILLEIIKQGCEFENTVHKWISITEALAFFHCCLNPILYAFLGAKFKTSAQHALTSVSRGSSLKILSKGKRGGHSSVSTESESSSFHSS
UniProt P78423, residues 25-336: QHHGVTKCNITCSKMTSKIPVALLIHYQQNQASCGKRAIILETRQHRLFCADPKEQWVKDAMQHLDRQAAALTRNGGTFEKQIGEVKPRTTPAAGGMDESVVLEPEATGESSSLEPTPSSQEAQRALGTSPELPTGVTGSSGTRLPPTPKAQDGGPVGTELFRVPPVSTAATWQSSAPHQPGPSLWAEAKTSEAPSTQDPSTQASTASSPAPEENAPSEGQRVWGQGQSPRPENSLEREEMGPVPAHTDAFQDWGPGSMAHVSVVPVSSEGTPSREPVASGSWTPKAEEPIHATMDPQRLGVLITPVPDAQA

The assay concerns the target CXCR4 on transfected mouse myeloma NSO cells (UniProt P61073). The assay can be described thus: adhesion of receptor-expressing NSO cells to immobilized stalkokine; one 'yes' printed for two ligands.

On to “FK (fractalkine), stalkokine form (from UniProt P78423 25-336) (ligand)”, for which the binding entry is “binds”.

Source of the values: US6699677.
